According to patent US5955325A, “Method for producing sulfated lactosamine oligosaccharide” (Seikagaku Kogyo Kabushiki Kaisha, priority 1996, dated 1999):

Test system: β-galactosidase
Assay: Sensitivity of desialylated 35SO4-transferred oligosaccharides to digestion with β-galactosidase (position of transferred sulfate)
Type: biochemical, Streptococcus
Conditions: after neuraminidase desialylation and β-galactosidase digestion; gel filtration

Structure (SMILES) | Fraction of transferred 35SO4 positioned at the Gal residue on the non-reducing-end side (35S-radioactivity resistant to β-galactosidase)
CC(=O)NC1C(O)OC(CO)C(OC2OC(CO)C(O)C(OC3OC(CO)C(OC4OC(CO)C(O)C(OC5(C(=O)O)CC(O)C(NC(C)=O)C(C(O)C(O)CO)O5)C4O)C(O)C3NC(C)=O)C2O)C1O (centres unmarked) [SL1L1, NeuAcα2--3Galβ1--4GlcNAcβ1--3Galβ1--4GlcNAc] | about 1/3
CC(=O)NC1C(O)OC(COS(=O)(=O)O)C(OC2OC(COS(=O)(=O)O)C(O)C(OC3OC(COS(=O)(=O)O)C(OC4OC(CO)C(O)C(OC5(C(=O)O)CC(O)C(NC(C)=O)C(C(O)C(O)CO)O5)C4O)C(O)C3NC(C)=O)C2O)C1O [SL2L4, NeuAcα2--3Galβ1--4GlcNAc(6S)β1--3Gal(6S)β1--4GlcNAc(6S)] | all
